Experimental data as given in the supplement of paper PMC3334620.
Whole data set: some 33,000 sequences, median “E-score (-0.5 to 0.5)” near -0.0034, cut for the highest 2% near 0.25. The list shows a part of the results.

molecular target: T1, Yap3 (UniProt P38749); experiment: PBM E-score (8-mer binding enrichment) (E-score (-0.5 to 0.5)); higher = stronger / more preferred TF binding; details: protein concentration: 100 nM; construct: GST-full length
T1 sequence: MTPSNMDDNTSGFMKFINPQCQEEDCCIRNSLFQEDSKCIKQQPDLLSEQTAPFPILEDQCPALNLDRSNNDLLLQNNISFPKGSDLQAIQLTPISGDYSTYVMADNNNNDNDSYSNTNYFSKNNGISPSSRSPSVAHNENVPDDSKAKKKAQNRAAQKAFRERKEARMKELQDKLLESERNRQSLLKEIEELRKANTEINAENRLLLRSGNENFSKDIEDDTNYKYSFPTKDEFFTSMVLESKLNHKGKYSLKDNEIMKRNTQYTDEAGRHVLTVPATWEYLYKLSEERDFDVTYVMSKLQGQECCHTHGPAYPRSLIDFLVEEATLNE
In short: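 Masliner-normalised scans of fluorescent anti-GST signal were the basis for scoring. That signal came from GST-tagged yeast transcription factors applied at about 100-200 nM to double-stranded universal all-10-mer Agilent arrays on fresh or once-stripped slides. Each ungapped eight-base word, pooled with its reverse complement, received an E-score from the Universal PBM Analysis Suite.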

Sequence | PBM E-score
CCAAACGG | -0.184
ACCTTATA | 0.175
ACCTAGAA | -0.121
TATCATGA | 0.0822
GACCCGAC | -0.162
ATTTATAC | 0.302
AATTGGCC | -0.0586
GCCTTCCA | -0.0463
CAGAATCG | 0.00291
ACCTCCTA | -0.246
ATATAGAG | 0.082
GACGGCAC | -0.212
AGTTGGAT | 0.0213
CGACATAC | 0.166
AGTTACAC | 0.0567
GCAGGATA | -0.053
AACCAGAG | 0.0335
CAAGTGTC | -0.108
GCACGACC | -0.0556
CCAATGTA | -0.0747
GTAAAGTA | 0.251
GAACAGAA | 0.164
CCTTAAGA | -0.105
ATTCCCTC | -0.11

Sequence | PBM E-score
AAGCGGGT | -0.168
CACGTAGG | -0.215
CCCGGGCG | -0.12
ACGTACTG | -0.0267
ACCGTGCC | -0.0308
CTTATTAC | 0.251
CGGAATTC | 0.044
ACGTATCG | -0.0162
AGCGAGAA | -0.0207
CGCAGTGC | -0.192
TCAACAGA | -0.0407
CAGAAGCA | 0.137
ATACTAAC | 0.227
ACGGCTCA | 0.0619
ACGTGCTC | -0.0391
CTCGGCCA | -0.0295
CTACCCAC | -0.154
ATACAGCG | 0.0763
CTTATAAC | 0.165
ACGAGTAA | 0.171
GCTCAGTA | -0.0762
AAAGTTTG | 0.205
CTGCGAGA | -0.255
ACCTACTG | 0.0748

Reprinted from above (20 entries):
Sequence | PBM E-score
CAGAATCG | 0.00291
ACCTCCTA | -0.246
ATATAGAG | 0.082
GACGGCAC | -0.212
AGTTGGAT | 0.0213
CGACATAC | 0.166
AGTTACAC | 0.0567
GCAGGATA | -0.053
AACCAGAG | 0.0335
CAAGTGTC | -0.108
GCACGACC | -0.0556
CCAATGTA | -0.0747
GTAAAGTA | 0.251
GAACAGAA | 0.164
CCTTAAGA | -0.105
ATTCCCTC | -0.11
AAGCGGGT | -0.168
CACGTAGG | -0.215
CCCGGGCG | -0.12
ACGTACTG | -0.0267

More records follow.

Sequence | PBM E-score
ACTGCTGG | -0.268
CGTGCACC | -0.0988
GATCACCC | -0.0647
TCCTGTAA | 0.127
ACACCTGC | 0.0833
ATGTATTC | 0.0226
ACAATTCA | 0.113
CCGTGGAC | -0.292
CACAAACG | 0.119
GTCCGAAC | -0.171
AGGGGCAC | -0.217
CGCGTATA | 0.00867
CGGATTAA | 0.0124
CACCTCCG | -0.0971
CACTAGAA | -0.00798
CGAATTTC | 0.298
CCTTTGGC | -0.141
ATCTAGCG | -0.108
AGTGGACA | 0.0206
AGTTCAGG | -0.125
CGGGATAA | 0.0852
TCCAGCGA | 0.0186
AACAACTA | 0.0618
CACGGGCC | -0.248

Sequence | PBM E-score
TAGAACAA | -0.016
CACGACTA | -0.101
GCTAGCCA | -0.116
GTTACCGA | -0.0867
CTCTATGC | -0.0291
GCAACTAC | 0.0978
CGAGGAGC | -0.0996
AAGTAACC | 0.0184
GCGACAAC | 0.0964
GTACTCCA | -0.0603
GAATTCTA | 0.0732
GAAGTTCC | -0.174
CCAACGAA | -0.0265
CTGAACCC | -0.149
ATCGTATG | 0.0469
CTATAAAA | 0.0227
TAGACCGA | -0.0293
CCTCATTC | -0.0202
ATGCGTCA | 0.169
GCCTAATA | 0.0577
AGACACAC | -0.0816
ATAGCATG | -0.131
